{"sequences": {"note": "Protein sequences, listed by entry. Tags and fused reporters are not part of them.", "UniProt Q61188, whole entry": "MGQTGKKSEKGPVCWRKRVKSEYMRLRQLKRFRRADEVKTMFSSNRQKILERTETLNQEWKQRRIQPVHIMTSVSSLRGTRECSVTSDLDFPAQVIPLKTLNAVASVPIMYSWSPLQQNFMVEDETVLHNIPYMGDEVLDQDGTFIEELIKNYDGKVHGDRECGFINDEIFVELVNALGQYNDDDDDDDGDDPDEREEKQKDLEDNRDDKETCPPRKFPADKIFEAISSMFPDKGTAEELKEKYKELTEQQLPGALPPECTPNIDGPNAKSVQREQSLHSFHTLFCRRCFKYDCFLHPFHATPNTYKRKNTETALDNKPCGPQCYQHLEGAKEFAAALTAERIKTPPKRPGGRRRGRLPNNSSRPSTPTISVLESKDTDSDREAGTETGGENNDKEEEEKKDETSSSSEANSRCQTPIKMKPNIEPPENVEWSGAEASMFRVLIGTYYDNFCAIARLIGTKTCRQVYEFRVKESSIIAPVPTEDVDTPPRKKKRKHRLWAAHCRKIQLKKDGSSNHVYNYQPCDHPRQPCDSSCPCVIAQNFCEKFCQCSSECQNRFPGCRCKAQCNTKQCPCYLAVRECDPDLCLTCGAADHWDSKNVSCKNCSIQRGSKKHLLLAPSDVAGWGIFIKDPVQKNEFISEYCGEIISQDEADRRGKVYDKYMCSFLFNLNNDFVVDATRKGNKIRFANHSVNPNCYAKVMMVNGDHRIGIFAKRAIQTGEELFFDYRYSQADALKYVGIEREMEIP"}, "source": "ChEMBL document CHEMBL5674883", "about": "“The Heterochromatin Landscape in Migrating Cells and the Importance of H3K27me3 for Associated Transcriptome Alterations” (Cells, 2018)", "format_in_all_cases": "cell-based", "key": {"[1]": {"target": "T1, RNA polymerase II (Mus musculus) (UniProt P08775+Q8CFI7+P97760+A0A3Q4L2S8+Q80UW8+P61219+P62488+Q923G2+P60898+O08740+Q63871+P62876)", "assay": "Inhibition of RNA polymerase II in mouse B16-F1 migrating cells assessed as fold change in Aire-RNA stability at 0.1 mM measured by ChIP-seq analysis relative to control cells"}, "[2]": {"target": "T1, RNA polymerase II (Mus musculus)", "assay": "Inhibition of RNA polymerase II in mouse B16-F1 migrating cells assessed as fold change in Kdelr3-RNA stability at 0.1 mM measured by ChIP-seq analysis relative to control cells"}, "[3]": {"target": "T1, RNA polymerase II (Mus musculus)", "assay": "Inhibition of RNA polymerase II in mouse B16-F1 migrating cells assessed as fold change in Dnajc15-RNA stability at 0.1 mM measured by ChIP-seq analysis relative to control cells"}, "[4]": {"target": "T1, RNA polymerase II (Mus musculus)", "assay": "Inhibition of RNA polymerase II in mouse B16-F1 migrating cells assessed as fold change in Rab4a-RNA stability at 0.1 mM measured by ChIP-seq analysis relative to control cells"}, "[5]": {"target": "T1, RNA polymerase II (Mus musculus)", "assay": "Inhibition of RNA polymerase II in mouse B16-F1 migrating cells assessed as fold change in Zyx-RNA stability at 0.1 mM measured by ChIP-seq analysis relative to control cells"}, "[6]": {"target": "T1, RNA polymerase II (Mus musculus)", "assay": "Inhibition of RNA polymerase II in mouse B16-F1 migrating cells assessed as fold change in Rpsa-RNA stability at 0.1 mM measured by ChIP-seq analysis relative to control cells"}, "[7]": {"target": "T1, RNA polymerase II (Mus musculus)", "assay": "Inhibition of RNA polymerase II in mouse B16-F1 migrating cells assessed as fold change in Adi1-RNA stability at 0.1 mM measured by ChIP-seq analysis relative to control cells"}, "[8]": {"target": "T1, RNA polymerase II (Mus musculus)", "assay": "Inhibition of RNA polymerase II in mouse B16-F1 migrating cells assessed as fold change in Rrs1-RNA stability at 0.1 mM measured by ChIP-seq analysis relative to control cells"}, "[9]": {"target": "T1, RNA polymerase II (Mus musculus)", "assay": "Inhibition of RNA polymerase II in mouse B16-F1 migrating cells assessed as fold change in Rell1-RNA stability at 0.1 mM measured by ChIP-seq analysis relative to control cells"}, "[10]": {"target": "T1, RNA polymerase II (Mus musculus)", "assay": "Inhibition of RNA polymerase II in mouse B16-F1 migrating cells assessed as fold change in Prkar2b-RNA stability at 0.1 mM measured by ChIP-seq analysis relative to control cells"}, "[11]": {"target": "T1, RNA polymerase II (Mus musculus)", "assay": "Inhibition of RNA polymerase II in mouse B16-F1 migrating cells assessed as fold change in Zdhhc20-RNA stability at 0.1 mM measured by ChIP-seq analysis relative to control cells"}, "[12]": {"target": "T1, RNA polymerase II (Mus musculus)", "assay": "Inhibition of RNA polymerase II in mouse B16-F1 migrating cells assessed as fold change in Pdcd10-RNA stability at 0.1 mM measured by ChIP-seq analysis relative to control cells"}, "[13]": {"target": "T1, RNA polymerase II (Mus musculus)", "assay": "Inhibition of RNA polymerase II in mouse B16-F1 migrating cells assessed as fold change in Il1rap-RNA stability at 0.1 mM measured by ChIP-seq analysis relative to control cells"}, "[14]": {"target": "T1, RNA polymerase II (Mus musculus)", "assay": "Inhibition of RNA polymerase II in mouse B16-F1 migrating cells assessed as fold change in Ipo7-RNA stability at 0.1 mM measured by ChIP-seq analysis relative to control cells"}, "[15]": {"target": "T1, RNA polymerase II (Mus musculus)", "assay": "Inhibition of RNA polymerase II in mouse B16-F1 migrating cells assessed as fold change in Enc1-RNA stability at 0.1 mM measured by ChIP-seq analysis relative to control cells"}, "[16]": {"target": "T1, RNA polymerase II (Mus musculus)", "assay": "Inhibition of RNA polymerase II in mouse B16-F1 migrating cells assessed as fold change in Ppm1d-RNA stability at 0.1 mM measured by ChIP-seq analysis relative to control cells"}, "[17]": {"target": "T1, RNA polymerase II (Mus musculus)", "assay": "Inhibition of RNA polymerase II in mouse B16-F1 migrating cells assessed as fold change in Dusp7-RNA stability at 0.1 mM measured by ChIP-seq analysis relative to control cells"}, "[18]": {"target": "Histone-lysine N-methyltransferase EZH2 (Mus musculus) (UniProt Q61188)", "assay": "Inhibition of EZH2 in mouse B16-F1 migrating cells assessed as fold change in H3K27me3-independent regulated Nppb-mRNA expression at 3 uM measured by ChIP-seq analysis relative to control cells"}, "[19]": {"target": "Histone-lysine N-methyltransferase EZH2 (Mus musculus) (UniProt Q61188)", "assay": "Inhibition of EZH2 in mouse B16-F1 migrating cells assessed as fold change in H3K27me3-independent regulated Zfp395-mRNA expression at 3 uM measured by ChIP-seq analysis relative to control cells"}, "[20]": {"target": "Histone-lysine N-methyltransferase EZH2 (Mus musculus) (UniProt Q61188)", "assay": "Inhibition of EZH2 in mouse B16-F1 migrating cells assessed as fold change in H3K27me3-buffered regulated Dusp5-mRNA expression at 3 uM measured by ChIP-seq analysis relative to control cells"}, "[21]": {"target": "Histone-lysine N-methyltransferase EZH2 (Mus musculus) (UniProt Q61188)", "assay": "Inhibition of EZH2 in mouse B16-F1 migrating cells assessed as fold change in H3K27me3-buffered regulated Rgs10-mRNA expression at 3 uM measured by ChIP-seq analysis relative to control cells"}, "[22]": {"target": "Histone-lysine N-methyltransferase EZH2 (Mus musculus) (UniProt Q61188)", "assay": "Inhibition of EZH2 in mouse B16-F1 migrating cells assessed as fold change in H3K27me3-buffered regulated Gla-mRNA expression at 3 uM measured by ChIP-seq analysis relative to control cells"}, "[23]": {"target": "Histone-lysine N-methyltransferase EZH2 (Mus musculus) (UniProt Q61188)", "assay": "Inhibition of EZH2 in mouse B16-F1 migrating cells assessed as fold change in H3K27me3-buffered regulated Jcad-mRNA expression at 3 uM measured by ChIP-seq analysis relative to control cells"}, "[24]": {"target": "Histone-lysine N-methyltransferase EZH2 (Mus musculus) (UniProt Q61188)", "assay": "Inhibition of EZH2 in mouse B16-F1 migrating cells assessed as fold change in H3K27me3-buffered regulated Nfkb1-mRNA expression at 3 uM measured by ChIP-seq analysis relative to control cells"}, "[25]": {"target": "Histone-lysine N-methyltransferase EZH2 (Mus musculus) (UniProt Q61188)", "assay": "Inhibition of EZH2 in mouse B16-F1 migrating cells assessed as fold change in H3K27me3-buffered regulated Cdkn1b-mRNA expression at 3 uM measured by ChIP-seq analysis relative to control cells"}, "[26]": {"target": "Histone-lysine N-methyltransferase EZH2 (Mus musculus) (UniProt Q61188)", "assay": "Inhibition of EZH2 in mouse B16-F1 migrating cells assessed as fold change in H3K27me3-buffered regulated Ccnl2-mRNA expression at 3 uM measured by ChIP-seq analysis relative to control cells"}, "[27]": {"target": "Histone-lysine N-methyltransferase EZH2 (Mus musculus) (UniProt Q61188)", "assay": "Inhibition of EZH2 in mouse B16-F1 migrating cells assessed as fold change in H3K27me3-buffered regulated Adamts4-mRNA expression at 3 uM measured by ChIP-seq analysis relative to control cells"}, "[28]": {"target": "Histone-lysine N-methyltransferase EZH2 (Mus musculus) (UniProt Q61188)", "assay": "Inhibition of EZH2 in mouse B16-F1 migrating cells assessed as fold change in H3K27me3-buffered regulated Esf1-mRNA expression at 3 uM measured by ChIP-seq analysis relative to control cells"}, "[29]": {"target": "Histone-lysine N-methyltransferase EZH2 (Mus musculus) (UniProt Q61188)", "assay": "Inhibition of EZH2 in mouse B16-F1 migrating cells assessed as fold change in H3K27me3-buffered regulated Hmgb2-mRNA expression at 3 uM measured by ChIP-seq analysis relative to control cells"}, "[30]": {"target": "Histone-lysine N-methyltransferase EZH2 (Mus musculus) (UniProt Q61188)", "assay": "Inhibition of EZH2 in mouse B16-F1 migrating cells assessed as fold change in H3K27me3-buffered regulated Slfn9-mRNA expression at 3 uM measured by ChIP-seq analysis relative to control cells"}}, "note": "The source gives many values for each of these; only a part stands here."}
{"compound": "OC[C@H]1O[C@@H](n2cnc3cc(Cl)c(Cl)cc32)[C@H](O)[C@@H]1O", "values": [{"measurement": "log2FC", "setting": "[1]", "value": 1.35}, {"measurement": "log2FC", "setting": "[2]", "value": 0.83}, {"measurement": "log2FC", "setting": "[3]", "value": 0.66}, {"measurement": "log2FC", "setting": "[4]", "value": 0.58}, {"measurement": "log2FC", "setting": "[5]", "value": 0.51}, {"measurement": "log2FC", "setting": "[6]", "value": 0.46}, {"measurement": "log2FC", "setting": "[7]", "value": 0.45}, {"measurement": "log2FC", "setting": "[8]", "value": -0.45}, {"measurement": "log2FC", "setting": "[9]", "value": -0.47}, {"measurement": "log2FC", "setting": "[10]", "value": -0.57}, {"measurement": "log2FC", "setting": "[11]", "value": -0.58}, {"measurement": "log2FC", "setting": "[12]", "value": -0.64}, {"measurement": "log2FC", "setting": "[13]", "value": -0.66}, {"measurement": "log2FC", "setting": "[14]", "value": -0.66}, {"measurement": "log2FC", "setting": "[15]", "value": -0.71}, {"measurement": "log2FC", "setting": "[16]", "value": -0.77}, {"measurement": "log2FC", "setting": "[17]", "value": -0.91}]}
{"compound": "CCCc1cc(C)[nH]c(=O)c1CNC(=O)c1cc(-c2ccnc(N3CCN(C)CC3)c2)cc2c1cnn2C(C)C", "values": [{"measurement": "log2FC", "setting": "[18]", "value": 0.7}, {"measurement": "log2FC", "setting": "[19]", "value": -0.85}, {"measurement": "log2FC", "setting": "[20]", "value": 1.17}, {"measurement": "log2FC", "setting": "[21]", "value": 0.47}, {"measurement": "log2FC", "setting": "[22]", "value": 0.42}, {"measurement": "log2FC", "setting": "[23]", "value": 0.39}, {"measurement": "log2FC", "setting": "[24]", "value": -0.38}, {"measurement": "log2FC", "setting": "[25]", "value": -0.43}, {"measurement": "log2FC", "setting": "[26]", "value": -0.48}, {"measurement": "log2FC", "setting": "[27]", "value": -0.5}, {"measurement": "log2FC", "setting": "[28]", "value": -0.53}, {"measurement": "log2FC", "setting": "[29]", "value": -0.53}, {"measurement": "log2FC", "setting": "[30]", "value": -0.59}]}
